Test results as given in PubChem BioAssay AID1671190 (National Center for Advancing Translational Sciences (NCATS), 2021).
Screen size: about 580,000 compounds; about 6,100 (1.1%) were called active. Inconclusive means that the source gave no clear call. Such entries were picked first, then a sample of the others. Calls follow the shape of the dose curve; as a rule, active = well fitted inhibition curve with a large enough effect; inconclusive = small, poorly fitted or top-dose-only effect, or another doubt; inactive = no such curve, though single readings can be large or run the other way. Potencies beside an inconclusive call are fits to weak or partial responses and may not hold up.

Chains of the proteins cited; added tags and fusions are not shown.
UniProt P18054, whole entry, looked up: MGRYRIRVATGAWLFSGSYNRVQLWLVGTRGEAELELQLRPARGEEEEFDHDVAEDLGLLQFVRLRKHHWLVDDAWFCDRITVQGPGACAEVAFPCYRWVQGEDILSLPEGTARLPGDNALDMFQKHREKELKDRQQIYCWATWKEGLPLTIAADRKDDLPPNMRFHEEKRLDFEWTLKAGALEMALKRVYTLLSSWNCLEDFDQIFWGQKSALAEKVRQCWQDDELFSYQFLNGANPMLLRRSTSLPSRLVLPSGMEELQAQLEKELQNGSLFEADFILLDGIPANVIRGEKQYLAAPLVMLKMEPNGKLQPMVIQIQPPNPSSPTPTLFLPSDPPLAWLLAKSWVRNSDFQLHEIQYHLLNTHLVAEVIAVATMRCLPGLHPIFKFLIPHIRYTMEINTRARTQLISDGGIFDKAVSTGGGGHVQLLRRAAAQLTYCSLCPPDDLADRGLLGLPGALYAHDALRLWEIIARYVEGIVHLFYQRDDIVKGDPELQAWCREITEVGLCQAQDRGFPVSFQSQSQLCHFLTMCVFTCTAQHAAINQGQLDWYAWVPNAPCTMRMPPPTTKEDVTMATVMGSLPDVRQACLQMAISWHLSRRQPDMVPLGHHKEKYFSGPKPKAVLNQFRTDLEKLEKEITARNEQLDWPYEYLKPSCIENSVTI

Molecular target: Polyunsaturated fatty acid lipoxygenase ALOX12 (Homo sapiens) (UniProt P18054)
Assay: Primary qHTS assay for inhibitors of human arachidonate 12S-lipoxygenase (ALOX12): Round 2
Settings: purified 12hLO, xylenol orange hydroperoxide absorbance; activity change, negative = inhibition: at 108 µM (top of the series) unless noted
How it was run: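 Hydroperoxide product was detected by ferrous iron/xylenol orange as the 573 to 405 nm absorbance ratio. Arachidonic acid at 40 uM (final) was turned over for 30 min at room temperature by 150 nM human 12hLO, pH 7.0 Hepes buffer, after 15 min compound preincubation.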
% is scaled to controls: 0 for no effect and ±100 for the full control effect; potency is read from the fitted curve at half-maximal effect.

SMILES | Potency | activity change, negative = inhibition
CCC(CO)NC(=O)Nc1sc(C)c(C)c1C#N (stereo not given) | inconclusive: 0.708 µM [inhibitor, full curve, poor fit] | –
CCc1nc(SC)ncc1C(=O)NCCc1ccc(C)cc1 | inconclusive: 39.8 µM [inhibitor, partial curve, poor fit] | –
N#Cc1ccc(NC(=O)Cn2c3[n+](c4ccc(C(F)(F)F)cc42)CCCCC3)cc1 | inconclusive: 44.7 µM [inhibitor, partial curve, poor fit] | –
COc1ccc(N(Cc2cccs2)C(=O)Cn2cnc3ccc(Cl)cc3c2=O)cc1 | inconclusive: 89.1 µM [inhibitor, partial curve, poor fit] | –
COc1ccc(C2(C)NC(=O)N(CC(=O)Nc3ccc4[nH]c(=O)[nH]c4c3)C2=O)cc1 (stereo not given) | inconclusive: 35.5 µM [inhibitor, partial curve, poor fit] | –
O=C(c1ccccc1)N1CCCC2(CC(c3ccccn3)=NO2)C1 (stereo not given) | – | inactive: 11.7% [at 6.33 µM]
Brc1ccc(OCc2ccccc2)c(CNCc2ccncc2)c1 | inconclusive: 31.6 µM [inhibitor, partial curve, poor fit] | –
CCOC(=O)c1ccc(Oc2cn[nH]c2-c2ccc(O)cc2O)cc1 | inconclusive: 39.8 µM [inhibitor, partial curve, poor fit] | –
COc1ccc(N2C(=O)C(Cl)=C(N3CCCC3)C2=O)cc1 | inconclusive: 15.8 µM [inhibitor, partial curve, poor fit] | –
CCC(=O)c1ccc(OCC(O)Cn2c(C)nc3ccccc32)cc1 (stereo not given) | inconclusive: 89.1 µM [inhibitor, partial curve, poor fit] | –
O=C(NCc1ccccc1)C1=C[C@H](c2ccc3c(c2)OCO3)C[C@H](OCc2ccc(CO)cc2)O1 | inconclusive: 31.6 µM [inhibitor, partial curve, poor fit] | –
COc1ccc2[nH]c(C)c(CCNC(=S)Nc3cccc(C)c3)c2c1 | inconclusive: 44.7 µM [inhibitor, partial curve, poor fit] | –
O=[N+]([O-])c1cccc(N=NN(CCO)c2cccc([N+](=O)[O-])c2)c1 | inconclusive: 112 µM [inhibitor, partial curve, poor fit] | –
O=C(/C=C/c1ccc([N+](=O)[O-])cc1)NCCc1ccccc1 | – | inactive: -4.85%
Cc1[nH]c2ccccc2c1C(C[N+](=O)[O-])c1ccc(C(F)(F)F)cc1 (stereo not given) | inconclusive: 35.5 µM [inhibitor, partial curve, poor fit] | –
COc1ccc2c(c1)OC(=O)CC2c1cc(OC)c(OC)c(OC)c1 (stereo not given) | – | inactive: -2.65%
c1ccc2c(CN3CCN(Cc4c[nH]c5ccccc45)CC3)c[nH]c2c1 | inconclusive: 50.1 µM [inhibitor, partial curve, poor fit] | –
CNC(=O)[C@@H]1CN(S(=O)(=O)c2cc(F)ccc2C)C[C@H]1C1CCN(C)CC1 | inconclusive: 20 µM [inhibitor, full curve, poor fit] | –
COCCCN1C(=O)C(=O)/C(=C(/O)c2ccc(S(=O)(=O)N3CCCCC3)cc2)C1c1ccc(O)c(OC)c1 (stereo not given) | inconclusive: 50.1 µM [inhibitor, partial curve] | –
CC(=O)C1=C(O)C2(C)c3c(O)c(C)c(O)c(C(C)=O)c3OC2CC1=O (stereo not given) | active: 31.6 µM | –
COc1cccc(CNC(=O)[C@@H]2C[C@@H](O)CN2C2CCN(C(=O)CCn3nc(C)cc3C)CC2)c1 | – | inactive: 55.3%
COc1ccc(C)cc1S(=O)(=O)N1CCC2(CC1)OCCN2S(=O)(=O)c1cccs1 | inconclusive: 50.1 µM [inhibitor, partial curve, poor fit] | –

3 compounds already listed, arranged by molar mass, low to high.
SMILES | Potency | activity change, negative = inhibition
O=[N+]([O-])c1cccc(N=NN(CCO)c2cccc([N+](=O)[O-])c2)c1 | inconclusive: 112 µM [inhibitor, partial curve, poor fit] | –
COc1ccc(C2(C)NC(=O)N(CC(=O)Nc3ccc4[nH]c(=O)[nH]c4c3)C2=O)cc1 (stereo not given) | inconclusive: 35.5 µM [inhibitor, partial curve, poor fit] | –
COCCCN1C(=O)C(=O)/C(=C(/O)c2ccc(S(=O)(=O)N3CCCCC3)cc2)C1c1ccc(O)c(OC)c1 (stereo not given) | inconclusive: 50.1 µM [inhibitor, partial curve] | –

Later entries

SMILES | Potency | activity change, negative = inhibition
Cc1n[nH]c(=O)nc1SCC(=O)Nc1ccc(C(=O)OC(C)C)cc1 | – | inactive: -5.03%
COc1cccc2cc(/C=C/C(=O)c3ccc(C)o3)oc12 | – | inactive: -35.2%
Cc1cccc(NC(=S)NNC(=O)c2ccccc2)c1 | inconclusive: 44.7 µM [inhibitor, partial curve, poor fit] | –
COCCN1C(=O)CO[C@H]2CN(c3nccc(OC)n3)C[C@H]21 | inconclusive: 44.7 µM [inhibitor, partial curve] | –
CCCS(=O)(=O)N1C[C@@H](Oc2ccccc2)C[C@@H]1C(=O)NCCOC | inconclusive: 28.2 µM [inhibitor, full curve] | –
CC(C)[C@H](NC(=O)OCc1ccccc1)C(=O)OCC(=O)N1C(C)CCCC1C (stereo not given in full) | inconclusive: 50.1 µM [inhibitor, partial curve, poor fit] | –
CNCCN1C(=O)CC[C@H]2CN(C(=O)c3ccnc(NC)c3)CC[C@H]21 | inconclusive: 35.5 µM [inhibitor, single point] | –
CCC(C)(C)n1nnnc1C(c1cccc(C#N)c1)N1CCN(c2cc(C)ccc2C)CC1 (stereo not given) | – | inactive: 1.87%
O=C(C[C@@H]1C/C=C\C[C@@H](Cc2ccc(F)cc2)C(=O)OCCNC1=O)N[C@H](CO)Cc1ccccc1 | inconclusive: 112 µM [inhibitor, partial curve, poor fit] | –
CCn1nc(NC(C)=O)c2cc3ccc(C)cc3nc21 | – | inactive: -8.64%
N#Cc1ccc(-c2nc3ccc(Br)cn3c2Cc2cccc(Cl)c2)cc1 | inconclusive: 50.1 µM [inhibitor, single point] | –
O=C(COC(=O)/C=C/c1ccco1)NCCN1C(=O)CSC1=O | – | inactive: -6%
O=C(Nc1cc(C(F)(F)F)cc(C(F)(F)F)c1)[C@H]1O[C@@H](n2ccc(=O)[nH]c2=O)[C@H](O)[C@@H]1O | inconclusive: 112 µM [inhibitor, partial curve, poor fit] | –
COc1ccc(C(=O)NCC2OCCc3ccccc32)cc1 (stereo not given) | inconclusive: 31.6 µM [inhibitor, single point] | –
O=C(Nc1ccc(Cl)cc1C(F)(F)F)C(c1ccccc1)c1ccccc1 | – | inactive: -7.51%
CC(=O)c1sc(N)nc1C | inconclusive: 70.8 µM [inhibitor, partial curve, poor fit] | –
Cc1cc(C(=O)CSc2n[nH]c(N)n2)c(C)n1-c1cc(F)ccc1F | inconclusive: 35.5 µM [inhibitor, partial curve, poor fit] | –
Cc1ccc(S(=O)(=O)N(CC(=O)N2CCN(C(=O)c3ccco3)CC2)Cc2ccco2)cc1C | inconclusive: 56.2 µM [inhibitor, partial curve, poor fit] | –
CCOC(=O)C1(C)C=C(Nc2ccc(CC)cc2)C(=O)N1c1ccc(CC)cc1 (stereo not given) | inconclusive: 112 µM [inhibitor, single point] | –
Oc1ccc(C=Nc2cccc3ncccc23)c(O)c1 | inconclusive: 2.24 µM [inhibitor, partial curve, poor fit] | –
OC1(CN2CCN(c3cnccn3)CC2)CNCCOC1 (stereo not given) | active: 10 µM | –
CC1(C)CCCC(C)(C#CCN2CCC(Cc3ccccc3)CC2)O1 (stereo not given) | inconclusive: 35.5 µM [inhibitor, partial curve, poor fit] | –

SMILES | Potency | activity change, negative = inhibition
Cn1ncc(N2CCC(C(=O)NCc3ccc(OC(F)(F)F)cc3)C2)cc1=O (stereo not given) | – | inactive: 27.8%
Cc1ccc(C)c(N2CCN(S(=O)(=O)c3ccc4c(c3)C(C)(C)C(=O)N4C)CC2)c1 | – | inactive: 145%
CCCOc1ccc(F)cc1-c1cc(C(=O)NCCOC)[nH]n1 | – | inactive: -17.5%
Cc1ccc(Cn2c(C3CCN(C(=O)c4cccc(F)c4)CC3)n[nH]c2=O)cc1 | active: 44.7 µM | –
CCCCn1c(N)c(N(CCOC)C(=O)c2cc(-c3ccccc3)nc3ccccc23)c(=O)[nH]c1=O | inconclusive: 63.1 µM [inhibitor, partial curve, poor fit] | –
Clc1ccc(OCc2nc3ccccc3[nH]2)cc1 | – | inactive: -4.26%
c1ccc(Nc2nc(-c3cccnc3)nc3ccccc23)cc1 | inconclusive: 8.91 µM [inhibitor, full curve, poor fit] | –
Cc1ccc(C(=O)c2ccc(CC(=O)O)n2C)cc1 | – | inactive: 5.87%
CC(C)Cn1c2c(c(O)c(C(=O)Nc3nccs3)c1=O)CCCC2 | – | inactive: 0.643%
C[C@]12CCC(=O)C=C1CCC1C2CC[C@@]2(C)C1CCC21OCCO1 (stereo not given in full) | – | inactive: 27.8%
COc1ccc(/C=N/NC(=O)c2sccc2OCc2ccc(F)cc2)cc1OC | – | inactive: 45.9%
CC(C)C1C(=O)Nc2ccc(S(=O)(=O)NCc3ccc(Cl)cc3)cc21 (stereo not given) | inconclusive: 50.1 µM [inhibitor, partial curve, poor fit] | –
COc1cccc(NC(=O)c2cnc(NS(=O)(=O)c3ccccc3)nc2)c1 | inconclusive: 44.7 µM [inhibitor, full curve, poor fit] | –
CN(CC(=O)N1CCC2(CCNCC2)CC1)Cc1cccnc1 | inconclusive: 39.8 µM [inhibitor, single point] | –
CC(Sc1nnc(C2CC2)n1C1CC1)C(=O)c1ccc(Br)cc1 (stereo not given) | inconclusive: 100 µM [inhibitor, partial curve, poor fit] | –
O=C(NCc1n[nH]c(=S)n1-c1cccc(Cl)c1)c1ccc(S(=O)(=O)N2CCCC2)cc1 | inconclusive: 100 µM [inhibitor, partial curve, poor fit] | –
Cc1nc(N2CCN(Cc3ccc4c(c3)OCO4)CC2)nc2c1C(=O)CC(c1ccco1)C2 (stereo not given) | – | inactive: -10.8%
CC(=O)c1cccc(NC(=O)c2c(-c3ccccc3)c(-c3ccccc3)nn(C)c2=O)c1 | inconclusive: 141 µM [inhibitor, partial curve, poor fit] | –
COc1ccc(S(=O)(=O)N2CCN(C)CC2)c(C)c1 | inconclusive: 89.1 µM [inhibitor, single point] | –
Cc1ccc(Nc2ccc([N+](=O)[O-])nc2[N+](=O)[O-])cc1 | – | inactive: -6.01%
CC1(c2ccccc2)NC(=O)N(CC(=O)Nc2nc(-c3ccccn3)cs2)C1=O (stereo not given) | – | inactive: -16.7%
